Values of other authors as cited in patent publication US10466259B2, “Synthetic antigen compositions for detecting anti-phosphatidylethanolamine antibodies” (Northwestern Univeristy, priority 2015, dated 2019).
For at least one compound, name, drawing or mass did not settle the structure.

Settings: cited from earlier work

CCCCCCCCCCCCCCCCCC(=O)OC[C@H](COP(=O)(O)OCCN)OC(=O)CCCCCCCCCCCCCCCCC [18:0 PE, distearoyl PE]
Lα-HII phase transition: 100 °C

CCCCCCCC/C=C\CCCCCCCC(=O)OC[C@H](COP(=O)(O)OCCN)OC(=O)CCCCCCC/C=C\CCCCCCCC [DOPE, dioleoyl PE]
Lα-HII phase transition: 3 °C
